At least one compound was matched to its structure with a doubt left.
Tested on: MDA-MB-231 cells
Test: TUNEL assay, 72 hours treatment
Format: cell-based, human
Conditions: co-treatment with anti-Glut-1 antibody

## O=c1cc(N2CCOCC2)oc2c(-c3ccccc3)cccc12 [LY29002]
  apoptosis induced by the anti-Glut-1 antibody on co-treatment with PI3-kinase inhibitor: partially reversed

— US8999326B2, “Oncotherapeutic application of inhibitors of high-affinity glucose transporters” (University of South Florida, priority 2007, dated 2015)
